Laboratory results as given in patent US7939589B2, “Polyhydroxy-diamines as low odor, low VOC multi-functional additives for paints and coatings” (Angus Chemical Company, priority 2009, dated 2011).

Legend:
[1] = Film yellowing after UV-B exposure; conditions: 116 hours at 50° C., UVB-313
[2] = Blocking resistance (ASTM D 4946); conditions: 1 kg weights, 30 minutes @ 50° C.; scale 0 (greatest adhesion) to 10 (least adhesion)

For `CCC(N)(CO)CO` [AEPD, 2-Amino-2-ethyl-1,3-propane-diol, reference compound], the “Film yellowing after 116 hr UV-B exposure (b*, yellownwess)” value (“Film yellowing” for short) [1] was 1.68.
With `CC(C)(N)CO` [AMP, 2-Amino-2-methyl-1-propanol, reference compound] the “Film yellowing” value [1] was 1.39, the “Blocking resistance, 1 day cure” value [2] was 5 and the “Blocking resistance, 3 days cure” value [2] was 6.
In the case of `CCCCN(CCO)CCO` [NBDA, N-Butyl-diethanolamine, reference compound], the “Film yellowing” value [1] was 1.64.
In the case of `NC1(CNC(CO)(CO)CO)CCCCC1` [TA-ACyHM, 2-((1-aminocyclohexyl)methylamino)-2-(hydroxymethyl)propane-1,3-diol], the “Film yellowing” value [1] was 1.65, the “Blocking resistance, 1 day cure” value [2] was 5/5 and the “Blocking resistance, 3 days cure” value [2] was 5/5.
In the case of `CC(C)(N)CNC(CO)(CO)CO` [TA-AMP, 2-(2-Amino-2-methylpropylamino)-2-(hydroxymethyl)propane-1,3-diol], the “Film yellowing” value [1] was 1.69.
